Source: ChEMBL document CHEMBL3988442, “University of Dundee, Small-Polar-MMV Screening Library” (2021).

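Whole-parasite assay of Trypanosoma brucei over 72 hours; the read-out is not stated. Concentration: 30 µM. Direction is inferred from retests: higher values go with stronger inhibition. Values scatter widely below zero; nearly all retest evidence comes from the higher of the two concentrations used. Of about 64,000 compounds tested this way, about 940 (1.5%) reached 50% or more in at least one test.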

Values are the deposited “Percent Effect”, in %. The record does not define 0% and 100%; most values in the screen are far below 50% and negative numbers occur (in some assays of this library far below -100). Compounds were drawn at random from those tested, without regard to their results.

| SMILES | effect |
|---|---|
| `O=C(c1ccncc1Cl)N1CCN(Cc2ccco2)C(CCO)C1` (stereo unspecified) | 2.316% |
| `CCN1CC2(CC1=O)CN(C(=O)C(C)C)CCN(S(=O)(=O)CC)C2` (stereo unspecified) | 2.126% |
| `CC(O)CN1CCN(C(=O)c2ccnc(N(C)C)c2)CC1` (stereo unspecified) | -42.09% |
| `c1ccc2c(Cc3nnc([C@H]4CCN(C5CCC5)C4)o3)c[nH]c2c1` | -25.07% |
| `CCc1ccccc1NCc1nc2[nH]c(C)c(C)c(=O)n2n1` | -41.78% |
| `Cn1cccc1-c1cc(C(=O)N2CCCCC2c2ccc(F)cc2)[nH]n1` (stereo unspecified) | 9.662% |
| `CCOc1ccccc1C(=O)NC(CC(=O)O)c1cccs1` (stereo unspecified) | -7.87% |
| `CC(=O)c1cc(CN2CCCC23CCN(c2ccccn2)CC3)cs1` | 8.411% |
| `Cl.NCC1CCCCN1C(=O)Cc1cccc(Br)c1` (stereo unspecified) | -14.05% |
| `CCC(C(=O)NC)N(c1cccc(C)c1)S(C)(=O)=O` (stereo unspecified) | 13.74% |
| `Cc1noc(NCc2cn(C)nc2-c2cccnc2)n1` | -14.18% |
| `CCC(C)C(=O)N(C)Cc1cc(F)ccc1N1CCC(OC)CC1` (stereo unspecified) | -62.12% |
| `COc1ccc(CNC(C)c2cccc(Br)c2)c(OC)c1OC.Cl` (stereo unspecified) | -9.699% |
| `Cc1cc(C(=O)N(C)C2CCS(=O)(=O)C2)c2ccc(F)cc2n1` (stereo unspecified) | -8.104% |
| `COc1ccc(Cl)cc1NCC(=O)NCc1cccnc1OC` | 74.82% |
| `Cc1ccc(OCCN2CCCC(c3cc(C(N)=O)[nH]n3)C2)cc1` (stereo unspecified) | 11.19% |
| `COCC(=O)N1CCCC1c1nccnc1Nc1ncccn1` (stereo unspecified) | 21.12% |
| `Cn1ccc(C2CCCCCN2C(=O)c2cccnc2)n1` (stereo unspecified) | -16.7% |
| `[H][C@]12CCC(=O)N(c3ccccc3)[C@@]1([H])CCN2C(=O)c1cccn1C` | -77.32% |
| `Cc1ccnc(NCCNC(=O)Cc2c(C)[nH]c3c(C)ccc(C)c23)c1` | -30.1% |
| `Cc1ccccc1N1CC(c2nnc(N)s2)CC1=O` (stereo unspecified) | -50.1% |
| `[H][C@@]12CCN(Cc3ccco3)C[C@@]1([H])O[C@H](C(=O)N1CCCO1)C2` | -25.02% |
| `c1coc(CNCC2Cn3nncc3CO2)c1` (stereo unspecified) | -80.34% |
| `CCN1CC(C(=O)N2CCN(CCn3cccc3)CC2)CCC1=O` (stereo unspecified) | -41.74% |
| `Cc1nn(C)c2c(=O)n(CC(=O)NCCC(C)C)ccc12` | -18.59% |
| `COc1ccc(CCNC(=O)C(C)Nc2cccc(C)c2C)cc1` (stereo unspecified) | 7.15% |
| `Cc1nc(N2CCOCC2)nc2c1CCN(C(=O)C1CC1)CC2` | -36.9% |
| `CN1CCC(N(CCc2ccccc2)C(=O)COCC2CCCO2)CC1` (stereo unspecified) | 4.419% |
| `N#CCCN(CC1CCOC1)S(=O)(=O)c1cccc(Cl)c1` (stereo unspecified) | -20.48% |
| `Cc1nc(NC2CCN(S(=O)(=O)c3ccccc3)CC2)[nH]c(=O)c1C` | -13.22% |
| `CN1CCN(C2CCN(CCOc3ccccc3F)CC2)C1=O` | 4.782% |
| `Cc1nc(C)n(C2CCCN(C(=O)c3csc(CC(C)C)n3)C2)n1` (stereo unspecified) | -15.66% |
| `Cc1cc(-c2nn(C)c(Cl)c2CN2CCOC(C(=O)O)C2)no1` (stereo unspecified) | -48.35% |
| `CS(=O)(=O)N1CCCCCC1C1CCN(c2ncccc2C#N)CC1` (stereo unspecified) | -1.161% |
| `Cc1csc(N2CCCN(C(=O)CCN3CCCC3=O)CC2)n1` | -40.98% |
| `CCn1c(C)nnc1CN(C)C1CCN(Cc2cnc(C)cn2)C1` (stereo unspecified) | -25.8% |
| `CCOc1ccc2[nH]c3c(N(C)CC4OCCO4)ncnc3c2c1` | 9.762% |
| `O=C(O)C(F)(F)F.[H][C@@]12CN(C(=O)Cc3ccsc3)C[C@]1([H])OCCN2CC1CC1` | -18.91% |
| `COc1ccc(C(C)NCc2ccsc2)cc1Cn1cccn1` (stereo unspecified) | -2.437% |
| `Cc1cn(CC(=O)Nc2cc(C(C)C)nn2C)cn1` | 23.42% |
| `CC(C)CCN1CN=C(NS(=O)(=O)c2ccc(F)cc2)NC1` | 26.85% |
| `CC(C)(C)OC(=O)N1CCN(C(=O)c2cnn3c2OCCC3)CC1` | -6.611% |
| `CCc1nc2c(N3CCC4(CC3)CNC(=O)C4)ncnc2o1` | 0.01881% |
| `Cn1cc(C2CCCN2C(=O)CCCOCc2ccccc2)cn1` (stereo unspecified) | 13.15% |
| `CCc1nnc(CNCC2CCCN2c2cccnn2)o1` (stereo unspecified) | -12.49% |
| `COc1ccccc1CNC(=O)C[S+]([O-])Cc1cc(C)on1` (stereo unspecified) | -18.24% |
| `Cc1cc(CNC(=O)NCCCC(=O)N2CCc3ccccc32)no1` | 8.787% |
| `CCS(=O)(=O)NCc1nc(C)cc(N2CCCCC2)n1` | -14.09% |
| `O=C(CCn1cncn1)NC1CCc2nccn2C1` (stereo unspecified) | -16.56% |
| `CC(C)NC(=O)N1CCOC2(CNC2)C1` | -17.49% |